A unit is not stated for every read-out.
Tests used:
[1] = Serum ethanolamine phospholipid levels in human cohorts (dementia severity, post-mortem pathology, age) by flow-injection MS/MS
[2] = Serum ethanolamine phospholipid ratios to PtdEt 16:0/18:0 (M01) in human cohorts
[3] = serum, females, post mortem SDAT
[4] = serum, females, post mortem control

## CCCCCCCC/C=C\CCCCCCCC(=O)OC(COC(=O)CCCCCCCCCCCCCCCCC)COP(=O)(O)OCCN (centres unmarked) [Metabolite M04, PtdEt 18:0/18:1]
[1]; AD, All to CN, Male
  Ratio of serum levels: 0.882
[1]; ADAS 5-19 to CN, Male
  Ratio of serum levels: 0.836
[1]; ADAS 20-39 to 5-19, Male
  Ratio of serum levels: 1.072
[1]; ADAS 20-39 to CN, Male
  Ratio of serum levels: 0.896
[1]; ADAS 40-70 to 5-19, Male
  Ratio of serum levels: 0.868
[1]; ADAS 40-70 to 20-39, Male
  Ratio of serum levels: 0.810
[1]; ADAS 40-70 to CN, Male
  Ratio of serum levels: 0.726
[1]; Cognitive Normal, Female
  Serum level, Mean: 0.026
[1]; Cognitive Normal, Male
  Average serum level, Mean: 0.030
[1]; Post Mortem Ctl, Male
  Serum level, Mean: 0.017
[1]; Post Mortem SDAT Male
  Serum level, Mean: 0.007
[1]; Post mortem SDAT vs Control, Male
  Ratio of serum levels: 0.420
[1]; SDAT, ADAS 5-19, Female
  Serum level, Mean: 0.024
[1]; SDAT, ADAS 5-19, Male
  Average serum level, Mean: 0.025
[1]; SDAT, ADAS 20-39, Female
  Serum level, Mean: 0.027
[1]; SDAT, ADAS 20-39, Male
  Average serum level, Mean: 0.027
[1]; SDAT, ADAS 40-70, Female
  Serum level, Mean: 0.024
[1]; SDAT, ADAS 40-70, Male
  Average serum level, Mean: 0.022
[1]; SDAT_all, Female
  Serum level, Mean: 0.025
[1]; SDAT_all, Male
  Average serum level, Mean: 0.026
[1]; serum level ratio, females, ADAS 5-19 vs CN
  Ratio, ADAS 5-19 to CN, Female: 0.912
[1]; serum level ratio, females, ADAS 20-39 vs ADAS 5-19
  Ratio, ADAS 20-39 to 5-19, Female: 1.126
[1]; serum level ratio, females, ADAS 20-39 vs CN
  Ratio, ADAS 20-39 to CN, Female: 1.027
[1]; serum level ratio, females, ADAS 40-70 vs ADAS 5-19
  Ratio, ADAS 40-70 to 5-19, Female: 1.022
[1]; serum level ratio, females, ADAS 40-70 vs ADAS 20-39
  Ratio, ADAS 40-70 to 20-39, Female: 0.907
[1]; serum level ratio, females, ADAS 40-70 vs CN
  Ratio, ADAS 40-70 to CN, Female: 0.932
[1]; serum level ratio, females, age 50-59 vs 40-49
  Ratio, 50-59 vs. 40-49, Female: 0.772
[1]; serum level ratio, females, age 60-69 vs 40-49
  Ratio, 60-69 vs. 40-49, Female: 0.709
[1]; serum level ratio, females, age 70+ vs 40-49
  Ratio, 70+ vs. 40-49, Female: 0.811
[1]; serum level ratio, females, all AD vs cognitively normal
  Ratio, AD, All to CN, Female: 0.963
[1]; serum level ratio, females, autopsy AD vs control
  Ratio, Autopsy AD vs. Control, Female: 0.775
[1]; serum level ratio, males, age 50-59 vs 40-49
  Ratio, 50-59 vs. 40-49, Male: 0.954
[1]; serum level ratio, males, age 60-69 vs 40-49
  Ratio, 60-69 vs. 40-49, Male: 1.019
[1]; serum level ratio, males, age 70+ vs 40-49
  Ratio, 70+ vs. 40-49, Male: 1.015
[1]; serum, females, age 30-39
  Mean serum level, Age Ctl, 30-39, Female: 0.028
[1]; serum, females, age 40-49
  Mean serum level, Age Ctl, 40-49, Female: 0.033
[1]; serum, females, age 50-59
  Mean serum level, Age Ctl, 50-59, Female: 0.025
[1]; serum, females, age 60-69
  Mean serum level, Age Ctl, 60-69, Female: 0.023
[1]; serum, females, age 70+
  Mean serum level, Age Ctl, 70+, Female: 0.026
[1]; [3]
  Mean serum level, Post Mortem SDAT, Female: 0.012
[1]; [4]
  Mean serum level, Post Mortem Ctl, Female: 0.016
[1]; serum, males, age 30-39
  Mean serum level, Age Ctl, 30-39, Male: 0.026
[1]; serum, males, age 40-49
  Mean serum level, Age Ctl, 40-49, Male: 0.027
[1]; serum, males, age 50-59
  Mean serum level, Age Ctl, 50-59, Male: 0.025
[1]; serum, males, age 60-69
  Mean serum level, Age Ctl, 60-69, Male: 0.027
[1]; serum, males, age 70+
  Mean serum level, Age Ctl, 70+, Male: 0.027
[2]; AD, All to CN, Male
  Ratio of ethanolamine phospholipid ratios to M01 between cohorts: 0.802
[2]; ADAS 5-19 to CN, Male
  Ratio of ethanolamine phospholipid ratios to M01 between cohorts: 0.774
[2]; ADAS 20-39 to CN, Male
  Ratio of ethanolamine phospholipid ratios to M01 between cohorts: 0.836
[2]; ADAS 40-70 to CN, Male
  Ratio of ethanolamine phospholipid ratios to M01 between cohorts: 0.700
[2]; Cognitive Normal, Male, serum
  Average serum ethanolamine phospholipid ratio to M01, Mean: 0.262
[2]; SDAT, ADAS 5-19, Male, serum
  Average serum ethanolamine phospholipid ratio to M01, Mean: 0.203
[2]; SDAT, ADAS 20-39, Male, serum
  Average serum ethanolamine phospholipid ratio to M01, Mean: 0.219
[2]; SDAT, ADAS 40-70, Male, serum
  Average serum ethanolamine phospholipid ratio to M01, Mean: 0.183
[2]; SDAT_all, Male, serum
  Average serum ethanolamine phospholipid ratio to M01, Mean: 0.210
[2]; human serum, females aged 30-39
  Ethanolamine Phospholipid Ratio to M01, Mean, Age Ctl, 30-39, Female: 0.279
[2]; human serum, females aged 40-49
  Ethanolamine Phospholipid Ratio to M01, Mean, Age Ctl, 40-49, Female: 0.283
[2]; human serum, females aged 50-59
  Ethanolamine Phospholipid Ratio to M01, Mean, Age Ctl, 50-59, Female: 0.241
[2]; human serum, females aged 50-59 vs. females aged 40-49
  Ratio of Ethanolamine Phospholipid Ratio to M01, 50-59 vs. 40-49, Female: 0.850
[2]; human serum, females aged 60-69
  Ethanolamine Phospholipid Ratio to M01, Mean, Age Ctl, 60-69, Female: 0.184
[2]; human serum, females aged 60-69 vs. females aged 40-49
  Ratio of Ethanolamine Phospholipid Ratio to M01, 60-69 vs. 40-49, Female: 0.652
[2]; human serum, females aged 70+
  Ethanolamine Phospholipid Ratio to M01, Mean, Age Ctl, 70+_Female: 0.221
[2]; human serum, females aged 70+ vs. females aged 40-49
  Ratio of Ethanolamine Phospholipid Ratio to M01, 70+ vs. 40-49, Female: 0.782
[2]; human serum, males aged 50-59 vs. males aged 40-49
  Ratio of Ethanolamine Phospholipid Ratio to M01, 50-59 vs. 40-49, Male: 1.023
[2]; human serum, males aged 60-69 vs. males aged 40-49
  Ratio of Ethanolamine Phospholipid Ratio to M01, 60-69 vs. 40-49, Male: 0.883
[2]; human serum, males aged 70+ vs. males aged 40-49
  Ratio of Ethanolamine Phospholipid Ratio to M01, 70+ vs. 40-49, Male: 0.889
[2]; serum, females, ADAS 5-19 vs cognitive normal
  Ratio of ethanolamine phospholipid ratio to M01, ADAS 5-19 to CN, Female: 0.968
[2]; serum, females, ADAS 20-39 vs ADAS 5-19
  Ratio of ethanolamine phospholipid ratio to M01, ADAS 20-39 to 5-19, Female: 1.122
[2]; serum, females, ADAS 20-39 vs cognitive normal
  Ratio of ethanolamine phospholipid ratio to M01, ADAS 20-39 to CN, Female: 1.086
[2]; serum, females, ADAS 40-70 vs ADAS 5-19
  Ratio of ethanolamine phospholipid ratio to M01, ADAS 40-70 to 5-19, Female: 0.917
[2]; serum, females, ADAS 40-70 vs ADAS 20-39
  Ratio of ethanolamine phospholipid ratio to M01, ADAS 40-70 to 20-39, Female: 0.817
[2]; serum, females, ADAS 40-70 vs cognitive normal
  Ratio of ethanolamine phospholipid ratio to M01, ADAS 40-70 to CN, Female: 0.887
[2]; serum, females, SDAT ADAS 5-19
  Ethanolamine phospholipid ratio to M01, Mean, SDAT, ADAS 5-19, Female: 0.215
[2]; serum, females, SDAT ADAS 20-39
  Ethanolamine phospholipid ratio to M01, Mean, SDAT, ADAS 20-39, Female: 0.241
[2]; serum, females, SDAT ADAS 40-70
  Ethanolamine phospholipid ratio to M01, Mean, SDAT, ADAS 40-70, Female: 0.197
[2]; serum, females, all AD vs cognitive normal
  Ratio of ethanolamine phospholipid ratio to M01, AD, All to CN, Female: 0.986
[2]; serum, females, all SDAT
  Ethanolamine phospholipid ratio to M01, Mean, SDAT_all Female: 0.219
[2]; serum, females, autopsy AD vs post mortem control
  Ratio of ethanolamine phospholipid ratio to M01, Autopsy AD vs. Control, Female: 1.069
[2]; serum, females, cognitive normal
  Ethanolamine phospholipid ratio to M01, Mean, Cognitive Normal, Female: 0.222
[2]; [3]
  Ethanolamine phospholipid ratio to M01, Mean, Post Mortem SDAT Female: 0.092
[2]; [4]
  Ethanolamine phospholipid ratio to M01, Mean, Post Mortem Ctl, Female: 0.086
[2]; serum, males, SDAT ADAS 20-39 vs ADAS 5-19
  Ratio of ethanolamine phospholipid ratio to M01, ADAS 20-39 to 5-19, Male: 1.080
[2]; serum, males, SDAT ADAS 40-70 vs ADAS 5-19
  Ratio of ethanolamine phospholipid ratio to M01, ADAS 40-70 to 5-19, Male: 0.903
[2]; serum, males, SDAT ADAS 40-70 vs ADAS 20-39
  Ratio of ethanolamine phospholipid ratio to M01, ADAS 40-70 to 20-39, Male: 0.837
[2]; serum, males, age control 30-39
  Ethanolamine phospholipid ratio to M01, Mean, Age Ctl, 30-39, Male: 0.224
[2]; serum, males, age control 40-49
  Ethanolamine phospholipid ratio to M01, Mean, Age Ctl, 40-49, Male: 0.229
[2]; serum, males, age control 50-59
  Ethanolamine phospholipid ratio to M01, Mean, Age Ctl, 50-59, Male: 0.235
[2]; serum, males, age control 60-69
  Ethanolamine phospholipid ratio to M01, Mean, Age Ctl, 60-69, Male: 0.203
[2]; serum, males, age control 70+
  Ethanolamine phospholipid ratio to M01, Mean, Age Ctl, 70+_Male: 0.204
[2]; serum, males, post mortem SDAT
  Ethanolamine phospholipid ratio to M01, Mean, Post Mortem SDAT Male: 0.076
[2]; serum, males, post mortem SDAT vs post mortem control
  Ratio of ethanolamine phospholipid ratio to M01, SDAT vs Control (post mortem, males): 0.529
[2]; serum, males, post mortem control
  Ethanolamine phospholipid ratio to M01, Mean, Post Mortem Ctl, Male: 0.143
